Source: patent publication US4810779A (Enichem Elastomeri S.p.A., priority 1985, dated 1989)

Test: general procedure: Fmoc solid-phase peptide synthesis
Settings: late stage modification step

| Substance | step yield | step yield (from decapeptide (III)) [%] |
| --- | --- | --- |
| PEPTIDE1{[Glp].L.W.P.R.P.H.V.P.P}$$$$V2.0 | 70% |  |
| PEPTIDE1{[Glp].L.W.P.R.P.Q.I.P.P}$$$$V2.0 | higher than 70% | 72.7 |

Some peptides are written in HELM: one residue between dots, names in brackets for other building blocks, links after the first $.
